## Library screening results

Source: ChEMBL document CHEMBL3988442, “University of Dundee, Small-Polar-MMV Screening Library” (2021).

A: 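Whole-cell assay for inhibitors of Mycobacterium tuberculosis growth, labelled Cornell in the record; the read-out is not stated. The concentration is filed as 10 mM, unlikely as a test dose, so the dose is not known. Higher means stronger inhibition (inferred from two other growth screens of the library). Size under these conditions: about 53,000 compounds, about 900 of them at 50% or above in at least one test.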
B: 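Assay on Mycobacterium tuberculosis, filed only as a heat shock assay from Cornell; the read-out is not stated. The concentration is filed as 10 mM, unlikely as a test dose, so the dose is not known. Higher reads as stronger inhibition (inferred: compounds with an IC50 in retests scored well above the rest). About 69,000 compounds were tested under these conditions; 1.4% (about 930) showed 50% or more at least once.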

Each number is a percent effect as filed. The record does not define 0% and 100%; most values in the screen are far below 50% and negative numbers occur (in some assays of this library far below -100). Compounds were drawn at random from those tested, without regard to their results. A dash means the value is not listed here; it may have been measured.

structure,A,B
COc1cccc(CCC(=O)N2CCC[C@@H](N)[C@@H]2c2ccccc2F)c1.Cl,33.87%,6.327%
c1ccc(Cn2cc(CNC3CCc4ncnn4C3)cn2)cc1 (stereo not drawn),-,-16.05%
COc1c(C2CCCN2C(=O)c2sc(C)nc2C)c(C)nn1C (stereo not drawn),-30.68%,-10.65%
NC(=O)COc1cccc(Cn2cccn2)c1,-9.733%,4.097%
Cc1ccc(N2CCC(NC(C)c3cccs3)CC2)nc1 (stereo not drawn),10.42%,-7.51%
Cl.O=C(C1CCCCC1)N1CC2(CCNCC2)C1,-,-9.3%
Cc1nn(CC(=O)N2CCN(c3ccc(F)cc3)CC2)c(C)c1Cl,-1.208%,-29.22%
O=C(O)C(F)(F)F.[H][C@]12CN(Cc3cccnc3)C(=O)[C@@]1([H])CN(S(=O)(=O)c1ccccc1)C2,-,-15.55%
COc1ccc(COCC(O)CNC(=O)c2cccc(OC)c2)cc1 (stereo not drawn),-47.56%,-4.463%
COc1cccc(CC(C)NC(=O)c2ccc(CNC(C)=O)cc2)c1 (stereo not drawn),-4.489%,-5.179%
O=C(c1cc(-c2cccnc2)[nH]n1)N1CCCC(c2cnccn2)C1 (stereo not drawn),-40.97%,-8.52%
CSCC(C)(O)CNS(=O)(=O)Cc1ccc(F)cc1 (stereo not drawn),-15.66%,-1.195%
Cc1cnn(CC2CCCN2CCCS(C)(=O)=O)c1 (stereo not drawn),-7.22%,-3.703%
CCc1nc(CCNc2ncccc2C#N)sc1C,-,-164.1%
CCc1cn[nH]c1C1CCN(c2cc(C)c3cc(OC)ccc3n2)CC1,4.644%,2.652%
O=C(O)C(F)(F)F.O=C(O)C(F)(F)F.c1cncc(C2COC3(CCN(Cc4cccs4)CC3)C2)c1 (stereo not drawn),-,-7.927%
Cc1cc(CSC2CCCN(c3cnn(C)c3)C2=O)no1 (stereo not drawn),-7.096%,-23.94%
COc1ccccc1CC(=O)N1CCC(NCc2c[nH]nc2C)CC1,24.89%,-2.187%
CCCNC(=O)c1cccc(CNCc2csc(C(C)(C)C)n2)c1,1.624%,-12.76%
Cc1nccn1CCC1CCCCN1Cc1ccncc1 (stereo not drawn),14.34%,-16.5%
COc1ncccc1CN1CC[C@]2(C[C@@H](OCc3ccccn3)CO2)C1.O=C(O)C(F)(F)F.O=C(O)C(F)(F)F.O=C(O)C(F)(F)F,8.812%,-21.21%
CCN1CCN(c2ccc(CNC(=O)c3cnn(C)c3C)cn2)CC1,-22.86%,-13.16%
CC(O)CNCc1c[nH]nc1-c1cc2ccccc2o1 (stereo not drawn),-47.14%,-9.861%
CN(Cc1ccc(Cl)s1)C(=O)NCCC(=O)N1CCCCCC1,18.24%,-32.27%
Fc1ccc(-c2cnc(C3CCNCC3)cn2)cc1,5.896%,-1.457%
CN(C)CC(=O)N1Cc2nc(C(=O)N3CCCN(C)CC3)oc2C1,7.695%,-4.476%
CCC(CC)c1nnc(NC(=O)N2CCCC(NC(C)=O)C2)s1 (stereo not drawn),0.6585%,15.85%
Cc1ccoc1-c1nnc(CNCC2CCCN2c2cccnn2)o1 (stereo not drawn),33.89%,-26.22%
[H][C@]12CCCCN1CCC[C@@]2(O)CNCC1(Cn2cccn2)CC1,20.11%,6.223%
COc1ccc2c(c1)OCC(Cc1cnccc1N)C2 (stereo not drawn),-2.915%,-3.438%
CC(C)CCc1noc(CN2CCCC(CNS(N)(=O)=O)C2)n1 (stereo not drawn),-,-20.28%
CCc1noc(C)c1C(=O)NCc1ccccn1,-,-9.167%
COc1ccc(CC(=O)N2CCCCC2Cn2cccn2)cc1OC (stereo not drawn),-16.89%,-17.98%
Cc1ncsc1-c1nnc(C2CCCN2C(=O)Cn2cccn2)o1 (stereo not drawn),-1.275%,10%
CNC(=O)C(C)(C)CNC(=O)Nc1ccncc1C,-6.409%,-0.1499%
N#Cc1cccc(C(=O)N2CC(c3nc(-c4cccnc4)no3)C2)c1,-34%,-9.465%
CS(=O)(=O)NCCC1CCCCN1C(=O)NCc1ccccn1 (stereo not drawn),-,13.57%
CC(C)n1cnc2c(-c3cccnc3)nc(C3CCNCC3)cc21.Cl.Cl,-31.99%,-7.192%
O=C(O)C(F)(F)F.[H][C@@]12COC[C@@H](CC(=O)N3CCCCO3)[C@]1([H])CN(CC1CCOCC1)C2,11.08%,-18.49%
CCOCc1ncn2c1CN(C(=O)Nc1cccc(F)c1)CC2,-,-19.78%
COCCC(=O)N1CCC2(CN(Cc3ccc(OC)c(F)c3)C2)C1,0.1408%,-25.73%
Cc1cc(NC(N)=O)ccc1OCC(F)(F)F,0.5772%,5.691%
CN(C)c1ncc(I)c(C2CCCCN2C)n1 (stereo not drawn),-2.876%,-2.625%
Cc1nc(-c2ccc(S(=O)(=O)N3CCSCC3)cc2)co1,-,22.52%
CC(C(=O)N1CCCC1)S(=O)(=O)Cc1nc(C(C)(C)C)no1 (stereo not drawn),6.736%,9.513%

Some entries from above, unchanged:

{"structure": "CC(O)CNCc1c[nH]nc1-c1cc2ccccc2o1", "stereo": "stereo not drawn", "A": -47.14, "B": -9.861}
{"structure": "CC(C)n1cnc2c(-c3cccnc3)nc(C3CCNCC3)cc21.Cl.Cl", "A": -31.99, "B": -7.192}
{"structure": "CSCC(C)(O)CNS(=O)(=O)Cc1ccc(F)cc1", "stereo": "stereo not drawn", "A": -15.66, "B": -1.195}
{"structure": "CN(C)c1ncc(I)c(C2CCCCN2C)n1", "stereo": "stereo not drawn", "A": -2.876, "B": -2.625}
{"structure": "COc1c(C2CCCN2C(=O)c2sc(C)nc2C)c(C)nn1C", "stereo": "stereo not drawn", "A": -30.68, "B": -10.65}